# The list shows a part of the results.
# Assays:
# Assay in all cases: glycan array binding signal (z-score within array); higher = stronger binding
# Conditions in all cases: glycan notation: IUPAC condensed, linker removed
# [1] = target: Gal(b1-2)Gal
# Summary of the method: (§1)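 Columns mapping to the same glycan were averaged after glycan names were converted to IUPAC-condensed notation. The data come from 3228 arrays in the Consortium for Functional Glycomics database, limited to those with an available protein sequence. Binding is reported as a within-array Z-score averaged across arrays of one protein sequence and across linkers.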
# [2] = target: Gal(b1-3)Gal
# Summary of the method: as §1
# [3] = target: Gal(b1-3)Gal(b1-4)GlcNAc
# Summary of the method: as §1
# [4] = target: Gal(b1-3)GalNAc
# Summary of the method: as §1
# [5] = target: Gal(b1-3)GalNAc(a1-3)[Fuc(a1-2)]Gal(b1-4)Glc
# Summary of the method: as §1
# [6] = target: Gal(b1-3)GalNAc(a1-3)[Fuc(a1-2)]Gal(b1-4)GlcNAc
# Summary of the method: as §1
# [7] = target: Gal(b1-3)GalNAc(b1-3)Gal
# Summary of the method: as §1
# [8] = target: Gal(b1-3)GalNAc(b1-3)Gal(a1-4)Gal(b1-4)Glc
# Summary of the method: as §1
# [9] = target: Gal(b1-3)GalNAc(b1-4)Gal(b1-4)Glc
# Summary of the method: as §1
# [10] = target: Gal(b1-3)GalNAc(b1-4)[Neu5Ac(a2-3)]Gal(b1-4)Glc
# Summary of the method: as §1
# [11] = target: Gal(b1-3)GlcNAc
# Summary of the method: as §1
# [12] = target: Gal(b1-3)GlcNAc(a1-3)Gal(b1-4)GlcNAc
# Summary of the method: as §1
# [13] = target: Gal(b1-3)GlcNAc(a1-6)Gal(b1-4)GlcNAc
# Summary of the method: as §1
# [14] = target: Gal(b1-3)GlcNAc(b1-2)Man
# Summary of the method: as §1
# [15] = target: Gal(b1-3)GlcNAc(b1-2)Man(a1-3)[Gal(b1-3)GlcNAc(b1-2)Man(a1-6)]Man(b1-4)GlcNAc(b1-4)GlcNAc
# Summary of the method: as §1
# [16] = target: Gal(b1-3)GlcNAc(b1-2)Man(a1-3)[Gal(b1-3)GlcNAc(b1-2)Man(a1-6)]Man(b1-4)GlcNAc(b1-4)[Fuc(a1-6)]GlcNAc
# Summary of the method: as §1
# [17] = target: Gal(b1-3)GlcNAc(b1-2)Man(a1-3)[GlcNAc(b1-4)][Gal(b1-3)GlcNAc(b1-2)Man(a1-6)]Man(b1-4)GlcNAc(b1-4)GlcNAc
# Summary of the method: as §1
# [18] = target: Gal(b1-3)GlcNAc(b1-2)[Gal(b1-3)GlcNAc(b1-6)]Man(a1-6)[Gal(b1-3)GlcNAc(b1-2)Man(a1-3)]Man(b1-4)GlcNAc(b1-4)GlcNAc
# Summary of the method: as §1
# [19] = target: Gal(b1-3)GlcNAc(b1-3)Gal(b1-3)GlcNAc
# Summary of the method: as §1
# [20] = target: Gal(b1-3)GlcNAc(b1-3)Gal(b1-4)Glc
# Summary of the method: as §1
# [21] = target: Gal(b1-3)GlcNAc(b1-3)Gal(b1-4)GlcNAc
# Summary of the method: as §1
# [22] = target: Gal(b1-3)GlcNAc(b1-3)Gal(b1-4)GlcNAc(b1-2)Man(a1-3)[Gal(b1-3)GlcNAc(b1-3)Gal(b1-4)GlcNAc(b1-2)Man(a1-6)]Man(b1-4)GlcNAc(b1-4)GlcNAc
# Summary of the method: as §1
# [23] = target: Gal(b1-3)GlcNAc(b1-3)Gal(b1-4)GlcNAc(b1-2)[Gal(b1-3)GlcNAc(b1-3)Gal(b1-4)GlcNAc(b1-6)]Man(a1-6)[Gal(b1-3)GlcNAc(b1-3)Gal(b1-4)GlcNAc(b1-2)Man(a1-3)]Man(b1-4)GlcNAc(b1-4)[Fuc(a1-6)]GlcNAc
# Summary of the method: as §1
# [24] = target: Gal(b1-3)GlcNAc(b1-3)Gal(b1-4)GlcNAc(b1-3)Gal(b1-4)GlcNAc(b1-2)[Gal(b1-3)GlcNAc(b1-3)Gal(b1-4)GlcNAc(b1-3)Gal(b1-4)GlcNAc(b1-6)]Man(a1-6)[Gal(b1-3)GlcNAc(b1-3)Gal(b1-4)GlcNAc(b1-3)Gal(b1-4)GlcNAc(b1-2)Man(a1-3)]Man(b1-4)GlcNAc(b1-4)[Fuc(a1-6)]GlcNAc
# Summary of the method: as §1
# [25] = target: Gal(b1-3)GlcNAc(b1-3)Gal(b1-4)GlcNAc(b1-6)[Gal(b1-3)GlcNAc(b1-3)]Gal(b1-4)Glc
# Summary of the method: as §1
# [26] = target: Gal(b1-3)GlcNAc(b1-3)Gal(b1-4)[Fuc(a1-3)]GlcNAc
# Summary of the method: as §1
# [27] = target: Gal(b1-3)GlcNAc(b1-3)Gal(b1-4)[Fuc(a1-3)]GlcNAc(b1-6)[Gal(b1-3)GlcNAc(b1-3)]Gal(b1-4)Glc
# Summary of the method: as §1
# [28] = target: Gal(b1-3)GlcNAc(b1-3)GalNAc
# Summary of the method: as §1
# [29] = target: Gal(b1-3)GlcNAc(b1-6)Gal(b1-4)GlcNAc
# Summary of the method: as §1
# [30] = target: Gal(b1-3)GlcNAc(b1-6)GalNAc
# Summary of the method: as §1
# [31] = target: Gal(b1-3)GlcNAc(b1-6)[Gal(b1-3)]GalNAc
# Summary of the method: as §1
# [32] = target: Gal(b1-3)GlcNAc6S
# Summary of the method: as §1
# [33] = target: Gal(b1-3)[Fuc(a1-4)]GlcNAc
# Summary of the method: as §1
# [34] = target: Gal(b1-3)[Fuc(a1-4)]GlcNAc(b1-2)Man
# Summary of the method: as §1
# [35] = target: Gal(b1-3)[Fuc(a1-4)]GlcNAc(b1-2)Man(a1-3)[Gal(b1-3)[Fuc(a1-4)]GlcNAc(b1-2)Man(a1-6)]Man(b1-4)GlcNAc(b1-4)[Fuc(a1-6)]GlcNAc
# Summary of the method: as §1
# [36] = target: Gal(b1-3)[Fuc(a1-4)]GlcNAc(b1-3)Gal(b1-3)[Fuc(a1-4)]GlcNAc
# Summary of the method: as §1
# [37] = target: Gal(b1-3)[Fuc(a1-4)]GlcNAc(b1-3)Gal(b1-4)[Fuc(a1-3)]GlcNAc
# Summary of the method: as §1
# [38] = target: Gal(b1-3)[Fuc(a1-4)]GlcNAc(b1-6)GalNAc
# Summary of the method: as §1
# [39] = target: Gal(b1-3)[GlcNAc(b1-6)]GalNAc
# Summary of the method: as §1
# [40] = target: Gal(b1-3)[Neu5Ac(a2-6)]GalNAc
# Summary of the method: as §1
# [41] = target: Gal(b1-3)[Neu5Ac(a2-6)]GlcNAc(b1-4)Gal(b1-4)Glc
# Summary of the method: as §1
# [42] = target: Gal(b1-3)[Neu5Ac(b2-6)]GalNAc
# Summary of the method: as §1
# [43] = target: Gal(b1-4)Gal
# Summary of the method: as §1
# [44] = target: Gal(b1-4)GalNAc(a1-3)[Fuc(a1-2)]Gal(b1-4)GlcNAc
# Summary of the method: as §1
# [45] = target: Gal(b1-4)GalNAc(b1-3)[Fuc(a1-2)]Gal(b1-4)GlcNAc
# Summary of the method: as §1
binder,measurement,setting,value
TAL6-4LysM (Trichoderma atroviride) (protein) AADSIPSISPTGIITPTPTQSGMVSNCNKFYDVHSNDGCSAIASSQHVDLSSLYKWNPAIKTDCSGLQASVYVCIGILTTSMSTTSKLPTTTSKPSTTSKPPTGITTPTPTQSGMVKNCNKFYDVHSGDGCSAIASSQKVNLSSFYLWNPAVKTDCSGLQASVFVCIGTLTTSMSTTTSKLPTTTSKPSTTSKPPTGIITPTPTQNGMVKNCNKFYDVHSGDGCSAIASSQKVNLSSFYLWNPAVKTDCSGLQASVFVCVGTATTTTAAGITTPTPTQSGMVSGCNKFYDVHAGDGCSAIASSQKIALSSLYKWNPAVKTDCSGLQASVYICIGVGNAAAARVTGALEQKLISEEDLNSAVDHHHHHH,glycan array binding signal (z-score),[1],0.734
same,glycan array binding signal (z-score),[2],-0.511
same,glycan array binding signal (z-score),[3],2.92
same,glycan array binding signal (z-score),[4],-0.084
same,glycan array binding signal (z-score),[5],-0.473
same,glycan array binding signal (z-score),[6],-0.542
same,glycan array binding signal (z-score),[7],-1.26
same,glycan array binding signal (z-score),[8],-0.156
same,glycan array binding signal (z-score),[9],0.178
same,glycan array binding signal (z-score),[10],0.291
same,glycan array binding signal (z-score),[11],-0.679
same,glycan array binding signal (z-score),[12],-0.81
same,glycan array binding signal (z-score),[13],0.827
same,glycan array binding signal (z-score),[14],-0.521
same,glycan array binding signal (z-score),[15],-1.12
same,glycan array binding signal (z-score),[16],-0.545
same,glycan array binding signal (z-score),[17],1.18
same,glycan array binding signal (z-score),[18],0.474
same,glycan array binding signal (z-score),[19],-0.097
same,glycan array binding signal (z-score),[20],1.22
same,glycan array binding signal (z-score),[21],-1.02
same,glycan array binding signal (z-score),[22],0.183
same,glycan array binding signal (z-score),[23],-0.349
same,glycan array binding signal (z-score),[24],0.206
same,glycan array binding signal (z-score),[25],-0.934
same,glycan array binding signal (z-score),[26],-0.408
same,glycan array binding signal (z-score),[27],-0.225
same,glycan array binding signal (z-score),[28],0.663
same,glycan array binding signal (z-score),[29],0.003
same,glycan array binding signal (z-score),[30],-0.263
same,glycan array binding signal (z-score),[31],-0.367
same,glycan array binding signal (z-score),[32],3.15
same,glycan array binding signal (z-score),[33],-0.074
same,glycan array binding signal (z-score),[34],0.506
same,glycan array binding signal (z-score),[35],1.23
same,glycan array binding signal (z-score),[36],-0.763
same,glycan array binding signal (z-score),[37],0.014
same,glycan array binding signal (z-score),[38],-0.1
same,glycan array binding signal (z-score),[39],2.39
same,glycan array binding signal (z-score),[40],-0.969
same,glycan array binding signal (z-score),[41],-0.311
same,glycan array binding signal (z-score),[42],-0.444
same,glycan array binding signal (z-score),[43],-1.42
same,glycan array binding signal (z-score),[44],-1.42
same,glycan array binding signal (z-score),[45],1.07

# Part of the list above, with tabs:
binder	measurement	setting	value
TAL6-4LysM (Trichoderma atroviride) (protein) AADSIPSISPTGIITPTPTQSGMVSNCNKFYDVHSNDGCSAIASSQHVDLSSLYKWNPAIKTDCSGLQASVYVCIGILTTSMSTTSKLPTTTSKPSTTSKPPTGITTPTPTQSGMVKNCNKFYDVHSGDGCSAIASSQKVNLSSFYLWNPAVKTDCSGLQASVFVCIGTLTTSMSTTTSKLPTTTSKPSTTSKPPTGIITPTPTQNGMVKNCNKFYDVHSGDGCSAIASSQKVNLSSFYLWNPAVKTDCSGLQASVFVCVGTATTTTAAGITTPTPTQSGMVSGCNKFYDVHAGDGCSAIASSQKIALSSLYKWNPAVKTDCSGLQASVYICIGVGNAAAARVTGALEQKLISEEDLNSAVDHHHHHH	glycan array binding signal (z-score)	[3]	2.92
same	glycan array binding signal (z-score)	[9]	0.178
same	glycan array binding signal (z-score)	[10]	0.291
same	glycan array binding signal (z-score)	[18]	0.474
same	glycan array binding signal (z-score)	[23]	-0.349
same	glycan array binding signal (z-score)	[28]	0.663
same	glycan array binding signal (z-score)	[33]	-0.074
same	glycan array binding signal (z-score)	[39]	2.39
same	glycan array binding signal (z-score)	[45]	1.07

# — the supplement of paper PMC8728848
